In the supplement of paper PMC8728848:
The other results are listed elsewhere or left out.

Columns and labels:
Assay in all cases: glycan array binding signal (z-score within array); higher = stronger binding
Conditions in all cases: glycan notation: IUPAC condensed, linker removed
Fuc(a1-2)Gal = molecular target: Fuc(a1-2)Gal
In short: (§1)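 Glycan array binding is given as a within-array Z-score, which can be read as non-binding when negative. The arrays, 3228 of them, came from the Consortium for Functional Glycomics database and were retained only where the protein sequence was available. Z-scores were averaged across arrays of the same protein sequence at different concentrations or buffers and across linkers.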

Fuc(a1-2)Gal(b1-3)GalNAc = molecular target: Fuc(a1-2)Gal(b1-3)GalNAc
In short: as §1

[1] = molecular target: Fuc(a1-2)Gal(b1-3)GalNAc(a1-3)[Fuc(a1-2)]Gal(b1-4)Glc
In short: as §1

[2] = molecular target: Fuc(a1-2)Gal(b1-3)GalNAc(a1-3)[Fuc(a1-2)]Gal(b1-4)GlcNAc
In short: as §1

[3] = molecular target: Fuc(a1-2)Gal(b1-3)GalNAc(b1-3)Gal
In short: as §1

[4] = molecular target: Fuc(a1-2)Gal(b1-3)GalNAc(b1-3)Gal(a1-4)Gal(b1-4)Glc
In short: as §1

[5] = molecular target: Fuc(a1-2)Gal(b1-3)GalNAc(b1-4)[Neu5Ac(a2-3)]Gal(b1-4)Glc
In short: as §1

Fuc(a1-2)Gal(b1-3)GlcNAc = molecular target: Fuc(a1-2)Gal(b1-3)GlcNAc
In short: as §1

[6] = molecular target: Fuc(a1-2)Gal(b1-3)GlcNAc(b1-2)Man(a1-3)[Fuc(a1-2)Gal(b1-3)GlcNAc(b1-2)Man(a1-6)]Man(b1-4)GlcNAc(b1-4)GlcNAc
In short: as §1

[7] = molecular target: Fuc(a1-2)Gal(b1-3)GlcNAc(b1-2)Man(a1-3)[Fuc(a1-2)Gal(b1-3)GlcNAc(b1-2)Man(a1-6)]Man(b1-4)GlcNAc(b1-4)[Fuc(a1-6)]GlcNAc
In short: as §1

[8] = molecular target: Fuc(a1-2)Gal(b1-3)GlcNAc(b1-3)Gal(b1-4)Glc
In short: as §1

[9] = molecular target: Fuc(a1-2)Gal(b1-3)GlcNAc(b1-3)GalNAc
In short: as §1

[10] = molecular target: Fuc(a1-2)Gal(b1-3)GlcNAc(b1-3)[Fuc(a1-2)Gal(b1-3)GlcNAc(b1-6)]GalNAc
In short: as §1

[11] = molecular target: Fuc(a1-2)Gal(b1-3)GlcNAc(b1-3)[Gal(b1-4)GlcNAc(b1-6)]Gal(b1-4)Glc
In short: as §1

[12] = molecular target: Fuc(a1-2)Gal(b1-3)GlcNAc(b1-3)[Neu5Ac(a2-6)Gal(b1-4)GlcNAc(b1-6)]Gal(b1-4)Glc
In short: as §1

[13] = molecular target: Fuc(a1-2)Gal(b1-3)GlcNAc6S
In short: as §1

[14] = molecular target: Fuc(a1-2)Gal(b1-3)[Fuc(a1-4)]GlcNAc
In short: as §1

[15] = molecular target: Fuc(a1-2)Gal(b1-3)[Fuc(a1-4)]GlcNAc(b1-2)Man(a1-3)[Fuc(a1-2)Gal(b1-3)[Fuc(a1-4)]GlcNAc(b1-2)Man(a1-3)]Man(b1-4)GlcNAc(b1-4)GlcNAc
In short: as §1

[16] = molecular target: Fuc(a1-2)Gal(b1-3)[Fuc(a1-4)]GlcNAc(b1-2)Man(a1-3)[Fuc(a1-2)Gal(b1-3)[Fuc(a1-4)]GlcNAc(b1-2)Man(a1-6)]Man(b1-4)GlcNAc(b1-4)[Fuc(a1-6)]GlcNAc(b1-4)[Fuc(a1-6)]GlcNAc
In short: as §1

[17] = molecular target: Fuc(a1-2)Gal(b1-3)[Fuc(a1-4)]GlcNAc(b1-3)[Fuc(a1-3)[Gal(b1-4)]GlcNAc(b1-6)]Gal(b1-4)Glc
In short: as §1

[18] = molecular target: Fuc(a1-2)Gal(b1-3)[Fuc(a1-4)]GlcNAc(b1-3)[Gal(b1-4)GlcNAc(b1-6)]Gal(b1-4)Glc
In short: as §1

Fuc(a1-2)Gal(b1-4)Glc = molecular target: Fuc(a1-2)Gal(b1-4)Glc
In short: as §1

Fuc(a1-2)Gal(b1-4)Glc6S = molecular target: Fuc(a1-2)Gal(b1-4)Glc6S
In short: as §1

Fuc(a1-2)Gal(b1-4)GlcNAc = molecular target: Fuc(a1-2)Gal(b1-4)GlcNAc
In short: as §1

[19] = molecular target: Fuc(a1-2)Gal(b1-4)GlcNAc(b1-2)Man
In short: as §1

[20] = molecular target: Fuc(a1-2)Gal(b1-4)GlcNAc(b1-2)Man(a1-3)[Fuc(a1-2)Gal(b1-4)GlcNAc(b1-2)Man(a1-6)]Man(b1-4)GlcNAc(b1-4)GlcNAc
In short: as §1

[21] = molecular target: Fuc(a1-2)Gal(b1-4)GlcNAc(b1-2)Man(a1-3)[Fuc(a1-2)Gal(b1-4)GlcNAc(b1-2)Man(a1-6)]Man(b1-4)GlcNAc(b1-4)[Fuc(a1-6)]GlcNAc
In short: as §1

[22] = molecular target: Fuc(a1-2)Gal(b1-4)GlcNAc(b1-2)[Fuc(a1-2)Gal(b1-4)GlcNAc(b1-4)]Man(a1-3)[Fuc(a1-2)Gal(b1-4)GlcNAc(b1-2)Man(a1-6)]Man(b1-4)GlcNAc(b1-4)GlcNAc
In short: as §1

[23] = molecular target: Fuc(a1-2)Gal(b1-4)GlcNAc(b1-3)Gal(b1-4)GlcNAc
In short: as §1

[24] = molecular target: Fuc(a1-2)Gal(b1-4)GlcNAc(b1-3)Gal(b1-4)GlcNAc(b1-2)Man(a1-3)[Fuc(a1-2)Gal(b1-4)GlcNAc(b1-3)Gal(b1-4)GlcNAc(b1-2)Man(a1-6)]Man(b1-4)GlcNAc(b1-4)GlcNAc
In short: as §1

B1: Mermaid2 (Stilbonema majum) (protein)
chain: MGSSHHHHHHSSGLVPRGSHMAASGWLRSPQGTVVKLYRRSLSWSKADEFCKDVDGRLVVDRTADMHLFLIKNVLKEKKSRVWVGLRRTAPHSRTWIWSDGTRQNEDDLNTNLWLRDEPNDAAGEEECALFMYSPWEKAWGLNDYLCRGGCRSYQFICEKGIR
Fuc(a1-2)Gal
  glycan array binding signal (z-score): 2.43
Fuc(a1-2)Gal(b1-3)GalNAc
  glycan array binding signal (z-score): -0.4
[1]
  glycan array binding signal (z-score): -0.659
[2]
  glycan array binding signal (z-score): -0.899
[3]
  glycan array binding signal (z-score): -0.276
[4]
  glycan array binding signal (z-score): -0.142
[5]
  glycan array binding signal (z-score): -0.772
Fuc(a1-2)Gal(b1-3)GlcNAc
  glycan array binding signal (z-score): -0.762
[6]
  glycan array binding signal (z-score): 1.62
[7]
  glycan array binding signal (z-score): -0.612
[8]
  glycan array binding signal (z-score): -0.74
[9]
  glycan array binding signal (z-score): -0.392
[10]
  glycan array binding signal (z-score): 0.539
[11]
  glycan array binding signal (z-score): -0.927
[12]
  glycan array binding signal (z-score): 0.333
[13]
  glycan array binding signal (z-score): -0.05
[14]
  glycan array binding signal (z-score): -0.743
[15]
  glycan array binding signal (z-score): -0.446
[16]
  glycan array binding signal (z-score): -0.681
[17]
  glycan array binding signal (z-score): -0.697
[18]
  glycan array binding signal (z-score): -0.432
Fuc(a1-2)Gal(b1-4)Glc
  glycan array binding signal (z-score): -0.355
Fuc(a1-2)Gal(b1-4)Glc6S
  glycan array binding signal (z-score): -0.331
Fuc(a1-2)Gal(b1-4)GlcNAc
  glycan array binding signal (z-score): -0.425
[19]
  glycan array binding signal (z-score): 1.76
[20]
  glycan array binding signal (z-score): -0.02
[21]
  glycan array binding signal (z-score): 1.08
[22]
  glycan array binding signal (z-score): -0.379
[23]
  glycan array binding signal (z-score): -0.575
[24]
  glycan array binding signal (z-score): 1.13
